Each number is a percent effect as filed.
How 0% and 100% were set is not recorded. Most values in the screen are low, and negative values occur.
This is an unselected part of the compounds tested.

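Growth of Mycobacterium tuberculosis over 4 days (cholesterol / DPPC medium with tyloxapol); the read-out is not stated. Compounds at 500 µM. Higher reads as more growth inhibition (inferred: compounds with an IC50 in retests scored well above the rest). About 18,000 compounds were tested under these conditions; 5% (about 900) showed 50% or more at least once.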

Compound	percent effect
CC(C)(C)O[C@H]1C[C@H](N)C1	-7.159
CCN(CC(=O)NC)C(=O)C(C)SC (configuration not stated)	5.869
Cc1ccncc1NC(=O)CCCc1ccccn1	-7.65
CNC(=O)Cc1ccc(-c2ccc(F)c(CO)c2)cc1	-0.5293
CCc1nsc(NC2CCN(C(C)=O)C2)n1 (configuration not stated)	11.51
Nc1nnc(SCCN2CCCCC2)[nH]1	10.77
C[C@@H]1CN(C(=O)CCc2cnn(C)c2)C[C@]1(C)O	12.4
CCn1c(C)nnc1SCC(=O)Nc1nccs1	-7.842
CNC(=O)CC1(CN)CCCCC1	21.96
COC(=O)NC(C)C(=O)NCCc1nccn1C (configuration not stated)	4.953
Cc1nc(C(N)=O)c[nH]1	-9.259
CC(=O)N(Cc1ccccc1F)C1CCN(C)CC1	10.67
COc1ccc2c(c1)OCC(C(=O)N(C)CCC#N)C2 (configuration not stated)	8.708
CN(C)C(CNC(=O)Nc1cccnc1)c1ccco1 (configuration not stated)	6.834
NCC(CO)Cc1ccc(Br)cc1 (configuration not stated)	21.61
COC(=O)CS(=O)(=O)c1ccc(C)c(Cl)c1	118.5
Nc1ncc2n1CCC2	18.51
Cc1cc(C(=O)N2CCOCC2)c2ccc(F)cc2n1	-12.12
CC(C)S(=O)(=O)CC(=O)N1CCc2ccc(Br)cc21	-3.689
Cn1cc(C(N)=O)nn1	2.058
CCOCCc1nnc(N)s1	0.007434
COCc1c(Br)cccc1NC(=O)CNC(=O)C1CC1	9.654
CCCC(=O)N(C)Cc1cc2ccccc2nc1O	10.37
Cc1ccccc1C1(O)CNC1	24.37
O=C(Nc1nccs1)N1CCCN(C(=O)C2CC2)CC1	-3.117
Cc1nc2c(c(NCc3ccc(N)nc3)n1)CCCC2	-4.292
NC(=O)CSc1ccnc(SCC(N)=O)n1	-0.594
CCC(NC(=O)c1cc(C)[nH]c(=O)c1)c1nc(C)c[nH]1 (configuration not stated)	4.817
CCCN(C)S(=O)(=O)NC(=O)Cc1ccccc1F	-12.4
NCc1cc(C2CC2)cs1	14.46
O=C(c1cscn1)N1CCN(c2ccc(Cl)cn2)CC1	85.19
CNC(=O)Cc1ccccc1NC(=O)c1csc(C)n1	-5.87
O=C(CCn1cccc1)NCc1ccco1	28.29
Cc1cc(C(=O)N(C)S(C)(=O)=O)nn1-c1ccccc1	5.205
CC(C)C(C(=O)N1CCNC(=O)C1)c1ccc(Cl)cc1 (configuration not stated)	-4.818
CC1COCCN1Cn1nnc2ccccc2c1=O (configuration not stated)	-7.002
Cc1cccc2ncn(C)c(=O)c12	-8.759
CC(C)=CCOC(=O)c1ccc(C(N)=O)nc1	-20.43
COc1cc(CN)ccn1	-8.366
NCc1nnc2n1CCC2	9.113
CSCC(CCO)NC(=O)c1cc(Br)c[nH]1 (configuration not stated)	23.71
CC(O)CN(C)Cc1cc(C#N)cs1 (configuration not stated)	-1.311
NC1CCCc2nc(N3CCC(CO)CC3)ncc21 (configuration not stated)	-170.7
CC(C)O[C@H]1C[C@@H](N)C1	-7.001
Cn1ccnc1C1NCC1(C)C (configuration not stated)	-1.94
CC(NC(=O)c1n[nH]c2c1CCC2)c1n[nH]c(=O)[nH]1 (configuration not stated)	-1.679
COc1cccc(NC(CN)c2ccccc2)c1 (configuration not stated)	46.52
CCC(N)(CC)CNS(=O)(=O)N1CCCCC1	-16.39
Cc1ccc(C2CCCN2S(=O)(=O)N(C)CC(N)=O)o1 (configuration not stated)	13.44
CCCNC(=O)CN1CCC(c2nc(C)no2)CC1	0.7103
CC1CC(=O)NCCN1 (configuration not stated)	12.51
CN1CC(CN(C)C(=O)c2sccc2Cl)CC1=O (configuration not stated)	9.407
NC(=O)NC(=O)CSc1nnc(-c2ccccc2F)[nH]1	-15.9
CN1CCC(CN(C)Cc2cncs2)C1 (configuration not stated)	-8.959
CNC1CCN(S(=O)(=O)c2cccc(C(N)=O)c2)C1 (configuration not stated)	-2.2
CC(C)c1nc(C2CCCN2)no1 (configuration not stated)	10.19
CC(=O)Cn1cnc2sc(C)c(C)c2c1=O	6.193
Cc1cccc(NC(=O)CCN2CCN(C)CC2)c1	8.427
CC1(C)CCCN1C(=O)NCCCNC(=O)C1CCC1	-2.059
COCCNC1CCCc2cccnc21 (configuration not stated)	2.755
NCCOCC1CCCO1 (configuration not stated)	2.969
CCN(C)S(=O)(=O)NCC1(N)CCCCC1	-10.16
Cc1c(Cl)cccc1NC(=O)N[C@@H]1CNCC[C@H]1O	3.131
Cc1ccc(C(C)C(=O)NCCS(N)(=O)=O)s1 (configuration not stated)	-5.656
CCN(CC)C(=O)[C@@H]1C[C@@H](N)CN1C(=O)CS(C)(=O)=O	-14.06
O=C(CSc1nncs1)NCC1CCCO1 (configuration not stated)	-159.8
COc1cnccc1C(C)N (configuration not stated)	-20.23
CC(C)NCC1CCC(=O)N1 (configuration not stated)	2.593
CCOCC(=O)NCC(C)(O)c1ccsc1 (configuration not stated)	9.892
CCSCCC(=O)N1CCC(c2nnc[nH]2)CC1	-5.648
NC1CCN(c2ccccc2F)C1 (configuration not stated)	-3.388
CC(C)N(Cc1cccnc1)S(C)(=O)=O	-9.678
CN(C(=O)c1c(F)cccc1Cl)C1CCS(=O)(=O)C1 (configuration not stated)	-12.12
CC(C)n1nccc1[C@H]1OCC[C@@H]1N	23.23
Cc1cc(NC(=O)NC2CCN(S(C)(=O)=O)CC2)no1	-17.82
Cc1ncccc1C(=O)Nc1cnns1	0.03094
Cc1cnccc1CNC(=O)CN1CCC(N(C)C)C1 (configuration not stated)	-8.669
Cc1cnc(CCN)nc1	1.323
CC(C)(C)CNCCCNS(C)(=O)=O	4.097
COc1ccc(S(N)(=O)=O)cc1-c1noc(C)n1	3.81
CCCN1CCC(Cc2noc(C3CCNC3)n2)CC1 (configuration not stated)	-2.218
OCc1nc(N2CCSCC2)c2ccccc2n1	0.2235
CCn1c(N)nc2cc(CO)ccc21	3.738
Cc1c(Br)cccc1C(=O)N(C)CCNS(C)(=O)=O	-11.13
CC(C)n1ccc(C(=O)NCCS(=O)(=O)N(C)C)n1	-5.072
COc1ccc(S(=O)(=O)Nc2cccc(CN)c2)cc1	53.17
CCN(C1CCN(c2ccccn2)CC1)S(C)(=O)=O	9.613
N[C@H]1CN(CC(=O)N2CCOCC2)C[C@@H]1C1CC1	-15.53
Cc1nnc(SCCO)s1	-4.185
CC1=NOC(C)(CNS(=O)(=O)c2ccc(F)cc2)C1 (configuration not stated)	-4.539
COC(=O)C[C@H](N)c1ccc(Cl)cc1	4.405
Cc1cncc(C(=O)NCCc2cncn2C)c1	-1.754
CCCC(N)C(=O)N(C)Cc1cccc(N(C)C)c1 (configuration not stated)	16.92
Cc1ccccc1-c1nnn(CC(O)CC(F)(F)F)n1 (configuration not stated)	6.962
Brc1cccc2c1CNCCO2	39.8
Cc1noc(CSCC(=O)NCc2ccccc2F)n1	22.66
CCOc1ccccc1N(C)C(=O)c1ccncc1F	12.27
Cc1ccc(C)c(S(N)(=O)=O)c1	-7.262
CCn1cc(C(=O)NC(C)c2nc(C3CC3)no2)cn1 (configuration not stated)	17.74
Cc1ccc(CN)nc1	22.15

Once more, the final 6:

With Brc1cccc2c1CNCCO2 the screen gave 39.8%.
With Cc1noc(CSCC(=O)NCc2ccccc2F)n1 the screen gave 22.66%.
With CCOc1ccccc1N(C)C(=O)c1ccncc1F the screen gave 12.27%.
With Cc1ccc(C)c(S(N)(=O)=O)c1 the screen gave -7.262%.
With CCn1cc(C(=O)NC(C)c2nc(C3CC3)no2)cn1 (configuration not stated) the screen gave 17.74%.
With Cc1ccc(CN)nc1 the screen gave 22.15%.

The values are deposited in ChEMBL (CHEMBL3988442, “University of Dundee, Small-Polar-MMV Screening Library” (2021)).